Patent publication US20050033020
For at least one entry, the source does not settle the construct or the ends of the probe. For some assays here: At least one result comes from cells or an extract, where the contact may be indirect.

Chains of the proteins cited; added tags and fusions are not shown. Lines headed by an entry give the natural chain unless they say otherwise; changes in a name come on top. A line that says so, or that is headed by a name, gives the form on record, which may keep a tag or linker.
UniProt Q8WN55: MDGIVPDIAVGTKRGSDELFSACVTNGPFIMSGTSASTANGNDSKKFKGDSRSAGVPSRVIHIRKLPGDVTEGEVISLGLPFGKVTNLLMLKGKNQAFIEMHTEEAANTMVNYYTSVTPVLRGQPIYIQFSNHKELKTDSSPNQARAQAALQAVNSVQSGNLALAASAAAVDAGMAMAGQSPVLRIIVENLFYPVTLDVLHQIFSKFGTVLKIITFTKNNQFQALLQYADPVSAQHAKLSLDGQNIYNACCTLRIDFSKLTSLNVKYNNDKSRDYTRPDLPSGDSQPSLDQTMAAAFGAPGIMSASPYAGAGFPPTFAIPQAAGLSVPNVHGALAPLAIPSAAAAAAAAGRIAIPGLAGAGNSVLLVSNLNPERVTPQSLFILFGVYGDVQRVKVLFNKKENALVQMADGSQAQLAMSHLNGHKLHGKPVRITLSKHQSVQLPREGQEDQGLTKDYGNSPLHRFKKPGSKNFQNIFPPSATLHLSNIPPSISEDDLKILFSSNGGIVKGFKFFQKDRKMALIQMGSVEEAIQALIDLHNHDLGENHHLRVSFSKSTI
UniProt P26599, other isoform, or with tags, fused parts or gaps: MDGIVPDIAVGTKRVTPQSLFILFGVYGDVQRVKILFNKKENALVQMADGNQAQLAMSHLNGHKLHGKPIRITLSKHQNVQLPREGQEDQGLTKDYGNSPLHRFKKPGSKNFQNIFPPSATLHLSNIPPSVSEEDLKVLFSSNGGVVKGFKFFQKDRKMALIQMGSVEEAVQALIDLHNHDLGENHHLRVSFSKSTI
p25 (PTB-T related protein) (Bos taurus), one chain, as listed by the source: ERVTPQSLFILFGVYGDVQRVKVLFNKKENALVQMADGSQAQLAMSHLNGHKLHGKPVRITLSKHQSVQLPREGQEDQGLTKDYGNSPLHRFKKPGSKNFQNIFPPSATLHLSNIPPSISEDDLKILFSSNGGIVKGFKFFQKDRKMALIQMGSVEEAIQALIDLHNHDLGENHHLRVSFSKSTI

How the values were obtained:
Experiment in all cases: binding assay
[1] = system: p25 (PTB-T related protein) (Bos taurus); conditions: UV crosslinking with RNase T1/A then SDS-PAGE; 15 mM KCl, yeast tRNA, 30 C; binding activity followed through purification; purified native protein; label: alpha-32P-UTP
[2] = system: p40 CD154 3'-UTR binding protein (Homo sapiens); conditions: UV crosslinking; binding mapped to nt 468-835; cell extract; protein in an extract; protein details: Jurkat and PBL extracts; label: alpha-32P-UTP
[3] = target: PTB (hnRNP I, p50) (Bos taurus) (UniProt Q8WN55); conditions: UV crosslinking with RNase T1/A then SDS-PAGE; 15 mM KCl, yeast tRNA, 30 C; binding activity followed through purification; purified native protein; label: alpha-32P-UTP
p50 (PTB) (Homo sapiens) = p50 (PTB) (Homo sapiens) (UniProt P26599); conditions: UV crosslinking; binding mapped to nt 468-835; cell extract; protein in an extract; protein details: Jurkat and PBL extracts; label: alpha-32P-UTP
[4] = target: p25 (PTB-T) (Homo sapiens) (UniProt P26599); conditions: UV crosslinking; binding mapped to nt 468-835; cell extract; protein in an extract; protein details: Jurkat and PBL extracts; label: alpha-32P-UTP

Measured: binding result

CAGGCUCUAGAACGUCUAACACAGUGGAGAACCGAAACCCCCCCCCCCCCCCCCGCCACCCUCUCGGACAGUUAUUCAUUCUCUUUCAAUCUCUCUCUCUCCAUCUCUCUCUUUCAGUCUCUCUCUCUCAACCUCUUUCUUCCAAUCUCUCUUUCUCAAUCUCUCUGUUUCCCUUUGUCAGUCUCUUCCCUCCCCCAGUCUCUCUUCUCUCCCCCUUUCUAACACACACACACACACACACACACACACACACACACACACACACACACACACACACACACACACAGAGUCAGGCCGUUGCUAGUCAGUUCUCUUCUUUCCACCCUGUCCCUAUCUCUACCACUAUAGAUGAGGGUGAGGAGUAG [CD154 3'-UTR 468-835]
binds: all assays above
